# Data taken from the supplement of paper PMC12823440, “Inhibitors supercharge kinase turnover through native proteolytic circuits” (Nature, 2025).
# Chains of the proteins cited; added tags and fusions are not shown. Lines headed by an entry give the natural chain unless they say otherwise; changes in a name come on top.
# UniProt Q9UQM7, whole entry: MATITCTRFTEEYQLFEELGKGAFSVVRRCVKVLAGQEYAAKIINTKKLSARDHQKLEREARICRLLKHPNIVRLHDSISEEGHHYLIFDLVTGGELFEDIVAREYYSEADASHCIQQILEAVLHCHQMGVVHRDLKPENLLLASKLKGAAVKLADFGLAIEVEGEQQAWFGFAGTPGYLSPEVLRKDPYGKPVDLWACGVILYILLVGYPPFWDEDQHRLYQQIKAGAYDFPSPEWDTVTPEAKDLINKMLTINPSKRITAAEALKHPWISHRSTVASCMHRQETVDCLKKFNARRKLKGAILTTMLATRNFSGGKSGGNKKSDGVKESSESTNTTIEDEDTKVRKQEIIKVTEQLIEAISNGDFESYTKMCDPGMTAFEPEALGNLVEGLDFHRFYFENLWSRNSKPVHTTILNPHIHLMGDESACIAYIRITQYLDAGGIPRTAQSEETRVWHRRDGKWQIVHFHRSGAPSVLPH
# UniProt Q13555: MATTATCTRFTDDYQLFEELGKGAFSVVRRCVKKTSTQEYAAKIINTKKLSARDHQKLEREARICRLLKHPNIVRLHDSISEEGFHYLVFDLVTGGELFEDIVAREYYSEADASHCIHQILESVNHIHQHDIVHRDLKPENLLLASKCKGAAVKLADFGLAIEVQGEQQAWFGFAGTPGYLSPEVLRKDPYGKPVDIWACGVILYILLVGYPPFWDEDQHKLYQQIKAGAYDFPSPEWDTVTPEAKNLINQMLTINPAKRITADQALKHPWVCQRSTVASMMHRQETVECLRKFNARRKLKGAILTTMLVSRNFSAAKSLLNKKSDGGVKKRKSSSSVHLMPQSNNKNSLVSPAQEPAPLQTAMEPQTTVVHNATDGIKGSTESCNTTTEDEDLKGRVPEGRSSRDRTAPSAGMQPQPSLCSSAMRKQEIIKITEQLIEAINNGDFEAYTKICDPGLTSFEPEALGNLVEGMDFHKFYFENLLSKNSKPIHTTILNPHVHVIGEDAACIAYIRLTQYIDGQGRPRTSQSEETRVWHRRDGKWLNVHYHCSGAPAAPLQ
# UniProt Q15131: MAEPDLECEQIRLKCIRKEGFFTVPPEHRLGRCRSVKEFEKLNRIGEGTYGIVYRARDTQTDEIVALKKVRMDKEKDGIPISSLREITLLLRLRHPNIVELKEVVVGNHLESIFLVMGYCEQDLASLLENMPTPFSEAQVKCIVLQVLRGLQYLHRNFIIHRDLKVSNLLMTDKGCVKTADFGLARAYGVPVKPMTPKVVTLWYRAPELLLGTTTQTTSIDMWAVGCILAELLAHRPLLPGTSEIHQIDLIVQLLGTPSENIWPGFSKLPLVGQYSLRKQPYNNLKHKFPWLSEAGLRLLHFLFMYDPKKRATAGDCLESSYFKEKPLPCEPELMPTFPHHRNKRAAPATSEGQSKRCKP
# UniProt Q00526: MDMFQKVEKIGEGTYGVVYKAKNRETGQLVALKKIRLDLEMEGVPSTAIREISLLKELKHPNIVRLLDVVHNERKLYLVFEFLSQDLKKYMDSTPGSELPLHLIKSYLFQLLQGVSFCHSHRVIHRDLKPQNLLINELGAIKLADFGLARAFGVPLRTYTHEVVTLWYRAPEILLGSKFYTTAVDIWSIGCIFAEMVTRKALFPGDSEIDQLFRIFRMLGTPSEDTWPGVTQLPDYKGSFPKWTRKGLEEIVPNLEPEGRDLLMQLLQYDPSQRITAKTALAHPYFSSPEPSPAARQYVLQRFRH
# UniProt Q00535, whole entry, looked up: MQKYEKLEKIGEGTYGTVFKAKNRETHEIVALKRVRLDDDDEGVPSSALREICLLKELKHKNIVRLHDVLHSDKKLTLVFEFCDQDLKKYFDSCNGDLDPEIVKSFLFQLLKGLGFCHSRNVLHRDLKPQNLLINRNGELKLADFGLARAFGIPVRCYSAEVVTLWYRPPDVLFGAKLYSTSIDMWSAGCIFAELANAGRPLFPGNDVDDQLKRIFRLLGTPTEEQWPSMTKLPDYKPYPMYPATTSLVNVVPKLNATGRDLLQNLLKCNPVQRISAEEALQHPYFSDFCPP
# UniProt Q00534, whole entry: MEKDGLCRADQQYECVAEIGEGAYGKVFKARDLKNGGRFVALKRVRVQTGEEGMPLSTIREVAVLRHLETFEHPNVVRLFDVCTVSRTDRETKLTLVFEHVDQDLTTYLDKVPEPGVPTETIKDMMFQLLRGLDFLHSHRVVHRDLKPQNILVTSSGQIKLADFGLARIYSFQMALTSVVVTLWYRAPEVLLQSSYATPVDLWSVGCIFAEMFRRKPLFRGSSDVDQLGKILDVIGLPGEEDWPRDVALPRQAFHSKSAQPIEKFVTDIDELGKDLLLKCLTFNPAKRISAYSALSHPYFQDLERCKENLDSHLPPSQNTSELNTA
# UniProt O96017, whole entry: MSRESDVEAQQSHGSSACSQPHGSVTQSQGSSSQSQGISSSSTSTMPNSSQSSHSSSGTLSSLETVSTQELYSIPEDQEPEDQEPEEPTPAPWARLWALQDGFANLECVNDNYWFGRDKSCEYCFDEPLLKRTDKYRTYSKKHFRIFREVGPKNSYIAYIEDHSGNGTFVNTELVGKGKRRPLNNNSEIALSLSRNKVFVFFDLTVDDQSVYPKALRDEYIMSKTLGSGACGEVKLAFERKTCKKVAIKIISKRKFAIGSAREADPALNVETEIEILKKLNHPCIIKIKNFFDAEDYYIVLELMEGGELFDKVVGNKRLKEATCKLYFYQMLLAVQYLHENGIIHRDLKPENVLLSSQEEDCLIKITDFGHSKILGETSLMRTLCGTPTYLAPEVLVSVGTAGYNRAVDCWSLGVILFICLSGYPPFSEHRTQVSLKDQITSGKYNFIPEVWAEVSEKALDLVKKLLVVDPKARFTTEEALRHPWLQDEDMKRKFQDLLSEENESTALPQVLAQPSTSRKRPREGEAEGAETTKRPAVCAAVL
# UniProt P07333, whole entry: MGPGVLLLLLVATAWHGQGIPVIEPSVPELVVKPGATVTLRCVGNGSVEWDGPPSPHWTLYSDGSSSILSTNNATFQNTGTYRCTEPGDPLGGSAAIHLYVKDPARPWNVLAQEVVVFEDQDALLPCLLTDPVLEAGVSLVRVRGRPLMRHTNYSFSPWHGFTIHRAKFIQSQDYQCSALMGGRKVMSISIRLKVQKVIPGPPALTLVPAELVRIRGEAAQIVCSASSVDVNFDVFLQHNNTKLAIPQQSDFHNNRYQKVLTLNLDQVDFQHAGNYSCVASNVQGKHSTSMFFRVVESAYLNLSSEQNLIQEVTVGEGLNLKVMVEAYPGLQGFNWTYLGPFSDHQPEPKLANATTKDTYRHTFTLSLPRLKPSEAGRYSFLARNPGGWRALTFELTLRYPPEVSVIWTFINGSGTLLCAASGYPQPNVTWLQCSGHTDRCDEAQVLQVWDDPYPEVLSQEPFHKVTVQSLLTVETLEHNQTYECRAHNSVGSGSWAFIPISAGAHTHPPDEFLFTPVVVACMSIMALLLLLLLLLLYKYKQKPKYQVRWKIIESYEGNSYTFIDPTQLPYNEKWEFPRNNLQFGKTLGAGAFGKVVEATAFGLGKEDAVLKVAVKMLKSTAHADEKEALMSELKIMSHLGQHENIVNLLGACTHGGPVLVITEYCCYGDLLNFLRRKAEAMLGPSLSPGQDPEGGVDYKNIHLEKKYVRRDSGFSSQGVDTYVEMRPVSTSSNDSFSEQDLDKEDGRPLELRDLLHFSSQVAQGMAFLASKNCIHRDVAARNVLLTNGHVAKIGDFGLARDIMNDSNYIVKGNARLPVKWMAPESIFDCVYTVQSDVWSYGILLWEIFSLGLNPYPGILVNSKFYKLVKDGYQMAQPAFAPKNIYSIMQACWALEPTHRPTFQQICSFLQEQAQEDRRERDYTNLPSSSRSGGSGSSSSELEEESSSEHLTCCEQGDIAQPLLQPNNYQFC
# UniProt P41240: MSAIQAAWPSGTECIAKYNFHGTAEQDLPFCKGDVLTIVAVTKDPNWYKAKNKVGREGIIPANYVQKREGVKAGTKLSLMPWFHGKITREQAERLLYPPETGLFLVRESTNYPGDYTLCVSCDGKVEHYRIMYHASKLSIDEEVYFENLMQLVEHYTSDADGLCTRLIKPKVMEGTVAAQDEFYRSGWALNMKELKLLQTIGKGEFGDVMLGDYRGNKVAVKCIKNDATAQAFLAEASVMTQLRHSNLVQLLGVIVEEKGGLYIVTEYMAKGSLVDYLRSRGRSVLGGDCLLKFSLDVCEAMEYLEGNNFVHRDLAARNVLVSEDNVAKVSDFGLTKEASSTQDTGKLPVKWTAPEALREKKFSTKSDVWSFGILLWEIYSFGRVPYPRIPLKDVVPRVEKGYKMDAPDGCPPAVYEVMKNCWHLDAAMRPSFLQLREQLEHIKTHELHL
# Structures can show the parent of a compound that is named as a salt. The list shows a part of the results. The calls rarely recur for the same compound in another form.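 Kinases were expressed as nanoluciferase fusions in K562 cells and luminescence was read every 4 h between 2 and 18 h as percent of control, DMSO set to 100% and a positive control to 0%. A time point counts as decreased when the signal drops significantly (2 sigma). The hit call is the authors' own, does not follow from the count of time points alone, and its rule is not shown.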
# Experiments:
# Test in all cases: number of time points (of 5) at which kinase-Nluc abundance scored as decreased, DMSO-normalised (count); higher = more persistent destabilization
# Conditions in all cases: K562; 2-18 h
# CAMK2A = CAMK2A (UniProt Q9UQM7)
# CAMK2G = CAMK2G (UniProt Q13555)
# CDK10 = CDK10 (UniProt Q15131)
# CDK2 = CDK2 (UniProt P24941)
# CDK3 = CDK3 (UniProt Q00526)
# CDK5 = CDK5 (UniProt Q00535)
# CDK6 = CDK6 (UniProt Q00534)
# CHEK2 = CHEK2 (UniProt O96017)
# CSF1R = CSF1R (UniProt P07333)
# CSK = CSK (UniProt P41240)
Compound,number of time points (CAMK2A),number of time points (CAMK2G),number of time points (CDK10),number of time points (CDK2),number of time points (CDK3),number of time points (CDK5),number of time points (CDK6),number of time points (CHEK2),number of time points (CSF1R),number of time points (CSK)
CC[C@H](C)[C@H](NC(=O)[C@H](CCC(=O)O)NC(=O)[C@H](CCCN=C(N)N)NC(=O)[C@H](CCCN=C(N)N)NC(=O)[C@@H](N)CCCCN)C(=O)N[C@@H](CC(C)C)C(=O)N[C@@H](CO)C(=O)N[C@@H](CCCN=C(N)N)C(=O)N[C@@H](CCCN=C(N)N)C(=O)N1CCC[C@H]1C(=O)N[C@@H](CO)C(=O)N[C@@H](Cc1ccc(O)cc1)C(=O)N[C@@H](CCCN=C(N)N)C(=O)O [CREBtide] (10 µM),0,0,0,0,0,0,0,0,0,0
O=c1nc(N2CCOCC2)oc2c(-c3cccc4c3sc3ccccc34)cccc12 (10 µM),0,0,0,0,0,0,0,0,0,0
C=C(F)C(=O)N1CCN(c2nc(OC[C@@H]3CCCN3C)nc3c2CCN(c2cccc4cccc(Cl)c24)C3)C[C@@H]1CC#N (2.5 µM),0,0,0,0,0,0,0,0,0,0
Cc1cc(C(C)Nc2ccccc2)c2nc(N3CCOCC3)cc(=O)n2c1 (stereo not given) (10 µM),0,0,0,0,0,0,0,0,0,0
O=C(Nc1ccc(Cl)c(Cl)c1)Nc1ccc2nnsc2c1 (10 µM),0,0,0,0,0,0,0,0,0,0
Cc1ccc(-c2ncn(-c3ccc(Nc4nccc(-c5cccc(N6CCOCC6)c5)n4)cc3)n2)cn1 (10 µM),0,0,0,0,0,0,0,0,0,0
CCN1/C(=C/C(C)=O)Sc2ccc(OC)cc21 (10 µM),0,1,0,0,1,0,0,2,0,0
C=CC(=O)N1CCC[C@@H](n2nc(C(=O)Nc3ccc(CC(=O)N(C)C)c(C)c3C)c3c(N)ncnc32)C1 (10 µM),0,0,0,0,0,0,0,0,0,0
c1ccc(-c2nn3c(c2-c2ccnc4cc(OCCN5CCOCC5)ccc24)CCC3)nc1 (10 µM),0,0,0,0,0,0,0,0,0,0
C=CC(=O)Nc1cccc(-n2c(=O)cc(C)c3cnc(Nc4ccc(OCCN(C)C)cc4OC)nc32)c1 (10 µM),0,0,0,0,0,0,0,0,0,0
COc1ncc(Nc2ncc([C@@H](C)N3CCN(S(C)(=O)=O)CC3)cc2-c2nc(C)nc(N)n2)cc1F (10 µM),0,0,0,0,0,0,0,0,0,0
COc1cc(N2CCC(N(C)C)CC2)ccc1Nc1ncc(Cl)c(Nc2ccccc2P(C)(C)=O)n1 (2.5 µM),0,0,0,0,0,0,0,0,0,0
C=CC(=O)N1CCC(Oc2cc3c(Nc4ccc(Cl)c(Cl)c4F)ncnc3cc2OC)CC1 [Poziotinib] (2.5 µM),0,0,0,0,0,0,0,0,0,0
N#C/C(=C\c1ccc2oc(=O)[nH]c2c1)C(=O)c1ccc(O)c(O)c1 (10 µM),0,0,0,0,0,0,0,0,0,0
Cc1cc(Nc2cc(CN3CCOCC3)c3nc(C)c(Cc4ccc(Cl)cc4F)n3n2)n[nH]1 [Gandotinib] (2.5 µM),0,0,0,0,0,0,0,0,0,0
CN1CCN(CCCNc2ncc(Cl)c(-c3cc4c(C(=O)NC5CC5)cccc4s3)n2)CC1 (10 µM),0,0,0,0,0,0,0,0,0,0
CCOC(=O)c1c2c3c(cccc3[nH]c1=O)C(=O)c1ccccc1-2 (10 µM),0,0,0,0,0,0,0,0,0,0
O=Nc1c(-c2c(O)[nH]c3ccccc23)[nH]c2ccccc12 [Indirubin-3'-monoxime] (2.5 µM),0,0,0,0,0,0,0,0,0,0

# One compound at a time, from the list above. Order of values: number of time points (CAMK2A) | number of time points (CAMK2G) | number of time points (CDK10) | number of time points (CDK2) | number of time points (CDK3) | number of time points (CDK5) | number of time points (CDK6) | number of time points (CHEK2) | number of time points (CSF1R) | number of time points (CSK)
# `c1ccc(-c2nn3c(c2-c2ccnc4cc(OCCN5CCOCC5)ccc24)CCC3)nc1` (10 µM) as listed: 0 | 0 | 0 | 0 | 0 | 0 | 0 | 0 | 0 | 0
# `COc1cc(N2CCC(N(C)C)CC2)ccc1Nc1ncc(Cl)c(Nc2ccccc2P(C)(C)=O)n1` (2.5 µM) as listed: 0 | 0 | 0 | 0 | 0 | 0 | 0 | 0 | 0 | 0

# (next part)

Compound,number of time points (CAMK2A),number of time points (CAMK2G),number of time points (CDK10),number of time points (CDK2),number of time points (CDK3),number of time points (CDK5),number of time points (CDK6),number of time points (CHEK2),number of time points (CSF1R),number of time points (CSK)
CC(C)(C)c1cc(C(c2cc3c(cc2O)OCO3)N2CCOCC2)cc(C(C)(C)C)c1O (stereo not given) (2.5 µM),0,0,0,0,0,0,0,0,0,0
CCN1C(=O)CNc2ncc(-c3ccc(-c4nc[nH]n4)nc3C)nc21 [CC-115 (hydrochloride)] (2.5 µM),0,3,0,0,0,0,1,1,3,0
CCOc1c([C@H](C)n2nc(C)c3c(N)ncnc32)cc(Cl)c(F)c1[C@@H]1CNC(=O)C1 [Parsaclisib (hydrochloride)] (10 µM),0,0,0,0,0,0,0,0,0,0
COc1cc(-c2cc(-c3cc(OC)c(OC)c(OC)c3)cc(C(F)P(=O)(OCOC(=O)C(C)(C)C)OCOC(=O)C(C)(C)C)c2)cc(OC)c1OC (stereo not given) [Stafia-1-dipivaloyloxymethyl ester] (2.5 µM),0,0,0,0,0,0,0,0,0,0
CC[C@H](Nc1ncnc2[nH]cnc12)c1oc2ccccc2c(=O)c1-c1cccc(F)c1 [Tenalisib] (10 µM),0,0,0,0,0,0,0,0,0,0
Nc1[nH]c(=O)nc2c1ncn2[C@@H]1O[C@H](CO)[C@@H](O)[C@H]1O [Crotonoside] (10 µM),0,0,0,0,0,0,0,0,0,0
CN(CC(=O)N(Cc1ccc(C2CCCCC2)cc1)c1ccc(C(=O)O)c(O)c1)S(=O)(=O)c1c(F)c(F)c(F)c(F)c1F (2.5 µM),0,0,0,0,0,0,0,0,0,0
CN(C)C(=O)c1ccc(S(=O)(=O)c2ccc(NC(=O)[C@@](C)(O)C(F)(F)F)c(Cl)c2)cc1 (10 µM),0,0,0,0,0,0,0,0,0,0
Nc1cc(C(F)F)c(-c2nc(N3C4CCC3COC4)nc(N3C4CCC3COC4)n2)cn1 (2.5 µM),0,0,0,0,0,0,0,0,0,0
CC1=C(CC(=O)O)c2cc(F)ccc2/C1=C\c1ccc(C(C)C)cc1 (10 µM),0,0,0,0,4,0,0,0,0,0
CC(C)N(C)c1nc2cc(C(=O)O)ccc2nc1-c1ccc(F)cc1 (10 µM),0,0,0,0,0,0,0,0,0,0
Nc1cccc(S(=O)(=O)N2CCCN(S(=O)(=O)c3ccc4c(c3)OCCO4)CC2)c1 (10 µM),0,0,0,0,0,0,0,0,0,0
CC[C@@H](N)CNc1ccnc(-c2cc(-c3cnn(C)c3)ccc2O)n1 (2.5 µM),0,0,0,0,0,0,0,0,0,0
OCCN(CCO)c1ccc(C(c2ccc(Cl)cc2)c2ccc(N(CCO)CCO)cc2)cc1 (10 µM),0,3,2,0,0,0,0,2,3,3
CC(C)c1cnn2c(NCc3ccccc3-n3cccn3)nc(OC3CCCNC3)nc12 (stereo not given) (2.5 µM),0,0,0,0,0,0,0,0,0,0
Nc1cc(C(F)(F)F)c(-c2nc(N3CCOCC3)nc(N3CCOCC3)n2)cn1 [Bimiralisib] (10 µM),0,3,0,0,0,0,0,1,0,0
CC[C@@H]1C(=O)N(C)c2cnc(Nc3ccc(C(=O)N[C@H]4CC[C@H](N5CCN(CC6CC6)CC5)CC4)cc3OC)nc2N1C(C)C [Volasertib] (2.5 µM),0,0,0,0,0,0,0,0,0,0
CC[C@@H]1[C@H](F)C(=O)N[C@@H]1COc1nccc2cc(C(N)=O)c(OC)cc12 (10 µM),0,0,0,0,0,0,0,0,0,0
